Laboratory results published in the supplement of paper PMC8090911.
Where a name gives a salt, the structure may show the parent alone. Some of the results follow. Single values are uncertain, as repeats are few or missing.

What follows are molecules tested on p95-ErbB2-MCF7 (assay: perinuclear lysosome accumulation (PNLA, size of LAMP2 puncta), robust Z-score vs plate median; higher = more perinuclear lysosome accumulation (reversal of invasive lysosome distribution)). Conditions: 5 µM; 24 h.

SMILES | perinuclear lysosome accumulation
C[N+]1(CCCCC[N+]2(C)CCCC2)CCCC1 [Pentolinium bitartrate] | 0.432
Oc1ncnc2[nH]ncc12 [Allopurinol] | 0.409
CNCCCC1c2ccccc2C=Cc2ccccc21 [Protriptyline hydrochloride] | 0.94
CCCCCCC[N+](CC)(CC)CCCCc1ccc(Cl)cc1 [Clofilium tosylate] | 0.766
C[C@]12CCC(=O)C=C1CC[C@@H]1[C@@H]2[C@@H](O)C[C@@]2(C)[C@H]1CC[C@]2(O)C(=O)CO [Hydrocortisone base] | -0.843
CC(C(=O)O)c1ccc2c(c1)Cc1cccnc1O2 (stereo unspecified) [Pranoprofen] | -0.357
CSc1ccc2c(c1)C(N1CCN(C)CC1)Cc1ccccc1S2 (stereo unspecified) [Methiothepin maleate] | 1.88
Cc1c(C)c2c(c(C)c1O)CCC(C)(COc1ccc(CC3SC(=O)NC3=O)cc1)O2 (stereo unspecified) [Troglitazone] | -0.129
COC(c1ccccc1)(c1ccccc1)[C@H](Oc1nc(C)cc(C)n1)C(=O)O [Ambrisentan] | 1.76
COc1ccc([C@@H]2CC(=O)c3c(O)cc(O[C@@H]4O[C@H](CO[C@@H]5O[C@@H](C)[C@H](O)[C@@H](O)[C@H]5O)[C@@H](O)[C@H](O)[C@H]4O)cc3O2)cc1O [Hesperidin] | -0.239
CC(C)(C(=O)O)c1ccc(C(O)CCCN2CCC(C(O)(c3ccccc3)c3ccccc3)CC2)cc1 (stereo unspecified) [Fexofenadine HCl] | -1.78
NS(=O)(=O)c1cc(C(=O)O)cc(N2CCCC2)c1Oc1ccccc1 [Piretanide] | -1.6
Cc1cc(C(C)(C)C)c(O)c(C)c1CC1=NCCN1 [Oxymetazoline hydrochloride] | -0.911
CN(C)CCCN1c2ccccc2Sc2ccccc21 [Promazine hydrochloride] | 0.618
O=C(O)c1cccnc1Nc1cccc(C(F)(F)F)c1 [Niflumic acid] | 0.0606
COc1ccc(C(Cl)=C(c2ccc(OC)cc2)c2ccc(OC)cc2)cc1 [Chlorotrianisene] | -3.12
Cc1oncc1C(=O)Nc1ccc(C(F)(F)F)cc1 [Leflunomide] | 1.19
CCOC(=O)[C@H](CCc1ccccc1)N[C@@H](C)C(=O)N1Cc2ccccc2C[C@H]1C(=O)O [Quinapril HCl] | -0.686
CC(CCc1ccccc1)NCC(O)c1ccc(O)c(C(N)=O)c1 (stereo unspecified) [Labetalol hydrochloride] | -1.4
Cc1onc(-c2c(Cl)cccc2Cl)c1C(=O)N[C@@H]1C(=O)N2[C@@H]1SC(C)(C)[C@@H]2C(=O)O [Dicloxacillin sodium salt] | -0.609
CC[N+](C)(C)Cc1ccccc1Br [Bretylium tosylate] | -0.767
C[N+](C)(C)CCCCCC[N+](C)(C)C [Hexamethonium dibromide dihydrate] | -1.65
CN(C)/N=N/c1[nH]cnc1C(N)=O [Dacarbazine] | -2.05
Cc1cc2c(cc1S(N)(=O)=O)S(=O)(=O)CCC2 [Meticrane] | 0.844

SMILES | perinuclear lysosome accumulation
Clc1cnccn1 [2-Chloropyrazine] | 0.732
CC1(C)S[C@@H]2[C@H](NC(=O)[C@H](NC(=O)N3CCNC3=O)c3ccccc3)C(=O)N2[C@H]1C(=O)O [Azlocillin sodium salt] | -1.2
COC(=O)Nc1nc2cc(C(=O)c3ccccc3)ccc2[nH]1 [Mebendazole] | 0.965
CC1(C)S[C@@H]2[C@H](NC(=O)[C@H](C(=O)O)c3ccsc3)C(=O)N2[C@H]1C(=O)O [Ticarcillin sodium] | 0.952
CN[C@@H]1[C@@H](O)[C@@H](O[C@@H]2[C@@H](O)[C@H](O[C@H]3OC(CN)=CC[C@H]3N)[C@@H](N)C[C@H]2N)OC[C@]1(C)O [Sisomicin sulfate] | 0.454
O=C1CN(/N=C/c2ccc(-c3ccc([N+](=O)[O-])cc3)o2)C(=O)N1 [Dantrolene sodium salt] | 0.988
CCOC(=O)n1ccn(C)c1=S [Carbimazole] | -0.554
C[C@H](N)[C@H](O)c1cccc(O)c1 [Metaraminol bitartrate] | 0.894
CCN(CC)CCOC(=O)C(Cc1cccc2ccccc12)CC1CCCO1 (stereo unspecified) [Nafronyl oxalate] | 0.0859
Cc1ccccc1OCC(O)CO (stereo unspecified) [Mephenesin] | 0.0327
CCN(CC)C(=S)SSC(=S)N(CC)CC [Disulfiram] | -2.33
C/C(=C(\CCOP(=O)(O)O)SC(=O)c1ccccc1)N(C=O)Cc1cnc(C)nc1N [Benfotiamine] | 0.541
O=C(CCCCCCC(=O)Nc1ccccc1)NO [Vorinostat] | 3.66
CC[C@H]1OC(=O)C[C@@H](O)[C@H](C)[C@@H](O[C@@H]2O[C@H](C)[C@@H](O[C@H]3C[C@@](C)(O)[C@@H](O)[C@H](C)O3)[C@H](N(C)C)[C@H]2O)[C@@H](CC=O)C[C@@H](C)C(=O)/C=C/C(C)=C/[C@@H]1CO[C@@H]1O[C@H](C)[C@@H](O)[C@@H](OC)[C@H]1OC [Tylosin] | -1.38
C[C@]12C[C@H](O)[C@H]3[C@@H](CCC4=CC(=O)CC[C@@]43C)[C@@H]1CC[C@@H]2C(=O)CO [Corticosterone] | -2.01
Nc1nc2c(ncn2COCCO)c(=O)[nH]1 [Acyclovir] | -0.235
CCCCCN(CCCCC)C(=O)C(CCC(=O)O)NC(=O)c1ccc(Cl)c(Cl)c1 (stereo unspecified) [Lorglumide sodium salt] | 2.04
COc1ccc(C(=O)c2ccccc2)c(O)c1 [Oxybenzone] | -0.0942
COc1c(N2C[C@@H]3CCCN[C@@H]3C2)c(F)cc2c(=O)c(C(=O)O)cn(C3CC3)c12 [Moxifloxacin] | -1.56
CC(=O)OCC(=O)[C@@]1(O)[C@H](C)C[C@H]2[C@@H]3CCC4=CC(=O)C=C[C@]4(C)[C@@]3(F)[C@@H](O)C[C@@]21C [Dexamethasone acetate] | -1.71
COc1ncnc(NS(=O)(=O)c2ccc(N)cc2)c1OC [Sulfadoxine] | 0.225
CCOC(=O)C1=C(C)NC(C)=C(C(=O)OCC)C1c1ccccc1/C=C/C(=O)OC(C)(C)C [Lacidipine] | 1.06
CCOc1cc(CC(=O)N[C@@H](CC(C)C)c2ccccc2N2CCCCC2)ccc1C(=O)O [Repaglinide] | -0.628
CCCCN(CCCC)CCC(O)c1cc2c(Cl)cc(Cl)cc2c2cc(C(F)(F)F)ccc12 (stereo unspecified) [Halofantrine hydrochloride] | 3.08

Another view of part of the listing above.
SMILES,perinuclear lysosome accumulation
C[N+]1(CCCCC[N+]2(C)CCCC2)CCCC1 [Pentolinium bitartrate],0.432
CNCCCC1c2ccccc2C=Cc2ccccc21 [Protriptyline hydrochloride],0.94
COc1ccc([C@@H]2CC(=O)c3c(O)cc(O[C@@H]4O[C@H](CO[C@@H]5O[C@@H](C)[C@H](O)[C@@H](O)[C@H]5O)[C@@H](O)[C@H](O)[C@H]4O)cc3O2)cc1O [Hesperidin],-0.239
Cc1cc(C(C)(C)C)c(O)c(C)c1CC1=NCCN1 [Oxymetazoline hydrochloride],-0.911
O=C(O)c1cccnc1Nc1cccc(C(F)(F)F)c1 [Niflumic acid],0.0606
C[N+](C)(C)CCCCCC[N+](C)(C)C [Hexamethonium dibromide dihydrate],-1.65
Cc1cc2c(cc1S(N)(=O)=O)S(=O)(=O)CCC2 [Meticrane],0.844
CC1(C)S[C@@H]2[C@H](NC(=O)[C@H](NC(=O)N3CCNC3=O)c3ccccc3)C(=O)N2[C@H]1C(=O)O [Azlocillin sodium salt],-1.2
O=C1CN(/N=C/c2ccc(-c3ccc([N+](=O)[O-])cc3)o2)C(=O)N1 [Dantrolene sodium salt],0.988
CCOC(=O)n1ccn(C)c1=S [Carbimazole],-0.554
O=C(CCCCCCC(=O)Nc1ccccc1)NO [Vorinostat],3.66
COc1c(N2C[C@@H]3CCCN[C@@H]3C2)c(F)cc2c(=O)c(C(=O)O)cn(C3CC3)c12 [Moxifloxacin],-1.56
CCOc1cc(CC(=O)N[C@@H](CC(C)C)c2ccccc2N2CCCCC2)ccc1C(=O)O [Repaglinide],-0.628

Continuation:

SMILES | perinuclear lysosome accumulation
C#C[C@]1(O)CC[C@H]2[C@@H]3CCc4cc(O)ccc4[C@H]3CC[C@@]21C [Ethinylestradiol] | 0.761
CCCC1O[C@@H]2C[C@H]3[C@@H]4CCC5=CC(=O)C=C[C@]5(C)[C@H]4[C@@H](O)C[C@]3(C)[C@]2(C(=O)CO)O1 (stereo partly specified) [Budesonide] | -0.0449
NS(=O)(=O)c1cc(Cl)c(Cl)c(S(N)(=O)=O)c1 [Dichlorphenamide] | 2.42
CCN1CCCC(OC(=O)C(c2ccccc2)c2ccccc2)C1 (stereo unspecified) [Piperidolate hydrochloride] | -0.127
Cc1onc(-c2c(F)cccc2Cl)c1C(=O)N[C@@H]1C(=O)N2[C@@H]1SC(C)(C)[C@@H]2C(=O)O [Flucloxacillin sodium] | 0.497
CN(C)CCCSC(=N)N [Dimaprit dihydrochloride] | -1.85
O=C(NCCN1CCOCC1)c1ccc(Cl)cc1 [Moclobemide] | -0.407
CN(C/C=C/c1ccccc1)Cc1cccc2ccccc12 [Naftifine hydrochloride] | -1.47
CC(=O)CCCCn1c(=O)c2c(ncn2C)n(C)c1=O [Pentoxifylline] | 0.943
CN1C(=O)OC(C)(C)C1=O [Trimethadione] | -0.83
OCCN1CCN(CCCN2c3ccccc3C=Cc3ccccc32)CC1 [Opipramol dihydrochloride] | -0.144
CC(C)NC[C@H](O)COc1cccc2ccccc12 [(S)-propranolol hydrochloride] | -2.41
C[C@@H](O)[C@H]1C(=O)N2C(C(=O)O)=C(S[C@@H]3CN[C@H](C(=O)N(C)C)C3)[C@H](C)[C@H]12 [Meropenem] | 0.866
CC(=O)O[C@H]1C[C@@H]2CC[C@@H]3[C@H](CC[C@@]4(C)[C@H]3C[C@H]([N+]3(C)CCCCC3)[C@@H]4OC(C)=O)[C@@]2(C)C[C@@H]1N1CCCCC1 [Vecuronium bromide] | 0.624
CC1(C)O[C@@H]2C[C@H]3[C@@H]4CCC5=CC(=O)CC[C@]5(C)[C@@]4(F)[C@@H](O)C[C@]3(C)[C@]2(C(=O)CCl)O1 [Halcinonide] | -0.453
C[C@]12C=CC(=O)C=C1CC[C@H]1[C@@H]3C[C@@H](O)[C@](O)(C(=O)CO)[C@@]3(C)C[C@H](O)[C@@]12F [Triamcinolone] | -1.63
CCN(CC)C(=O)/C(C#N)=C/c1cc(O)c(O)c([N+](=O)[O-])c1 [Entacapone] | 0.914
OC(c1cc(C(F)(F)F)nc2c(C(F)(F)F)cccc12)C1CCCCN1 (stereo unspecified) [Mefloquine hydrochloride] | 2.55
CNCCCC12CCC(c3ccccc31)c1ccccc12 [Maprotiline hydrochloride] | 0.854
C[C@@H]1C[C@H]2[C@@H]3C[C@H](F)C4=CC(=O)C=C[C@]4(C)[C@@]3(Cl)[C@@H](O)C[C@]2(C)[C@H]1C(=O)COC(=O)C(C)(C)C [Clocortolone pivalate] | -0.315
CN(C)CCn1nnnc1SCC1=C(C(=O)O)N2C(=O)[C@@H](NC(=O)Cc3csc(N)n3)[C@H]2SC1 [Cefotiam hydrochloride] | 0.706
CC(=O)N[C@@H](CS)C(=O)O [Acetylcysteine] | -2.56
CC(=O)O[C@H]1C[C@@]2(C)[C@@H](C[C@@H](O)[C@H]3[C@@]4(C)CC[C@@H](O)[C@@H](C)[C@@H]4CC[C@@]32C)/C1=C(\CCC=C(C)C)C(=O)O [Fusidic acid sodium salt] | 0.364
